Source: patent US5556836 (dated 1996)

Assay: general procedure: solution-phase peptide synthesis; EDCI/HOBT/NMM (also HOOBT; TBTU/HOBT/DIPEA for cyclisation; DCC for D-22620)
Conditions: trifluoroacetate

| Substance | step yield (coupling step) | also measured |
| --- | --- | --- |
| pGlu-His(Trt)-Trp-Ser-Zu-Leu-Arg-(Pmc)-Pro-Gly-NH2 | 63% | – |
| Boc-Lys (Z) -Thr-Zu-Phe-D-Trp-OMe | 80% | – |
| Z-Trp-Ser-Zu-Leu-Arg(Pmc)-Pro-Gly-NH2 | 50% | – |
| pGlu-His-Trp-Ser-Zu-Leu-Arg-Pro-Gly-NH2 | – | step yield (late stage modification step): 67% |
| Ac-D-(2-Nal)-p-Cl-D-Phe-D-(3-Pal)-Ser-Tyr-D-Lys(Zu)-Leu-Arg-Pro-D-AlaNH2.-TFA | – | conjugation yield (conjugation step): 27% |
| Ac-D-(2-Nal)-p-Cl-D-Phe-D-(3-Pal)-Ser-Tyr-Zu-Leu-OMe | 80% | – |
| cyclo(-Zu-Phe-D-Trp-Lys-Thr) | – | cyclisation yield (cyclisation step): 54% |
| Z-Ser-Tyr-Zu-Leu-OMe | 72% | – |
| Z-Trp-Ser-Zu-Leu-OMe | 63% | – |
